The record followed here is article PMC4412921.

Results are given in words; binding and its absence hold for the method and conditions named.

The test deals with T1, recombinant human granulocyte colony-stimulating factor (human), P09919.
T1 chain: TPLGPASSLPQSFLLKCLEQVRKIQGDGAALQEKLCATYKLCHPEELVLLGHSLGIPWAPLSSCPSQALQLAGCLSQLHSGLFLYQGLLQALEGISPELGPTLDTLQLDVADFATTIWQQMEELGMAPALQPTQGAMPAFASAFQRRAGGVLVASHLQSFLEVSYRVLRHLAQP
Put plainly: SEC; TSK-GEL G3000SWXL (300 mm x 7.8 mm) column, mobile phase 1 mM K2HPO4-Na2HPO4 in water pH 6.2, flow 0.6 ml/min, detection at 280 nm; analysis of monomer and aggregates; both purified. The following applies: remark: other sources report otherwise. On the technique in general: SEC sorts molecules by how far they enter the pores of the column.

B1: recombinant human granulocyte colony-stimulating factor, P09919-2 31-204 (ligand)
chain: T1 chain
B1: the binding result is “no binding”.
